Results as given in patent US4876248A, “Anti-inflammatory products derived from methylene-diphosphonic acid, and process for their preparation” (priority 1982, dated 1989).
Values joined by “and” are separate entries in the source; they are usually repeats but may differ in a detail not shown here. Equal values may be shown once. Where a name gives a salt, the structure may show the parent alone. The name of at least one read-out is uncertain.

Tested on: Adjuvant arthritis
Test: Adjuvant arthritis in the rat (in vivo study), weight of the paw
Design: species or system rat (male Sprague-Dawley)
Details: 10 mg/kg per day cutaneously, 6 days per week, 3 weeks, started 15 days after Mycobacterium tuberculosis injection, right rear paw, 10 mg/kg/day

Q: With `O=P(O)(O)C(Sc1ccc(Cl)cc1)P(=O)(O)O` [SR 41 319, Di-(tertiarybutylamine) salt of (4-chlorophenyl)thiomethylene-diphosphonicacid] as the molecule, how does the “Adjuvant arthritis, weight of the paw % inhibition (difference in average paw weight of treated arthritic rats relative to reference arthritic rats)” value read?
A: The value was 29% and 35%.
